From article doi:10.1101/2024.05.06.590855
These are yes or no findings as the source states them, for the method shown. In cells and extracts the contact can be indirect. These calls come from enrichment with a bait or labelling near it, and not all partners need be listed.

Sequences of proteins named here, by UniProt entry; tags and fusion partners are left off.
UniProt P70288: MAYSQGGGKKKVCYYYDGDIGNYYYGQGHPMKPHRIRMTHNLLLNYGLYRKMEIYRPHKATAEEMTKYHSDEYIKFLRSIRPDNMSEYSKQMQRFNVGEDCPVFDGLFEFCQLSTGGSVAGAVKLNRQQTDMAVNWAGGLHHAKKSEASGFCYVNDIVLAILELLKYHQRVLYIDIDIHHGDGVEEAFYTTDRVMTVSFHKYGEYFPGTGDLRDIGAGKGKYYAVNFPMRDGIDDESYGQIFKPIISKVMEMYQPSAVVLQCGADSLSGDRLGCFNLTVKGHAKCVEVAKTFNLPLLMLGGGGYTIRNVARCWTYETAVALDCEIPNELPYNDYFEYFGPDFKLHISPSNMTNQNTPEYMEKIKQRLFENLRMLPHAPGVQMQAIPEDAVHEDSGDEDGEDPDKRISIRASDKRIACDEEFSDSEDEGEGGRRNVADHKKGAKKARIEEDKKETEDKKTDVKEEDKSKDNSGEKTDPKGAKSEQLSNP
UniProt O09106: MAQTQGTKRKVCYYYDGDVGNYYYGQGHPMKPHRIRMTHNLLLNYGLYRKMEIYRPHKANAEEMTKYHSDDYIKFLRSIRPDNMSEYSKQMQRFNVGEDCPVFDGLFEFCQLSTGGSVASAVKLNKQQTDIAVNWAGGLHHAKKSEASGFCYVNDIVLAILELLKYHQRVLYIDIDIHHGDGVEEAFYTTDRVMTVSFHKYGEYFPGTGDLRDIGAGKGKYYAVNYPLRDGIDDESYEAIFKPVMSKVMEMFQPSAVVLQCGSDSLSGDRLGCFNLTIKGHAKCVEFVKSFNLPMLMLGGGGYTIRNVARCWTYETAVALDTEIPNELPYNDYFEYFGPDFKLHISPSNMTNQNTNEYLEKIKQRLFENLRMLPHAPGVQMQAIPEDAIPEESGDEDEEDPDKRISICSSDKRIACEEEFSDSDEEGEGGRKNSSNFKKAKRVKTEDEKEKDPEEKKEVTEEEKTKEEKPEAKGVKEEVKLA
UniProt Q8CHY6: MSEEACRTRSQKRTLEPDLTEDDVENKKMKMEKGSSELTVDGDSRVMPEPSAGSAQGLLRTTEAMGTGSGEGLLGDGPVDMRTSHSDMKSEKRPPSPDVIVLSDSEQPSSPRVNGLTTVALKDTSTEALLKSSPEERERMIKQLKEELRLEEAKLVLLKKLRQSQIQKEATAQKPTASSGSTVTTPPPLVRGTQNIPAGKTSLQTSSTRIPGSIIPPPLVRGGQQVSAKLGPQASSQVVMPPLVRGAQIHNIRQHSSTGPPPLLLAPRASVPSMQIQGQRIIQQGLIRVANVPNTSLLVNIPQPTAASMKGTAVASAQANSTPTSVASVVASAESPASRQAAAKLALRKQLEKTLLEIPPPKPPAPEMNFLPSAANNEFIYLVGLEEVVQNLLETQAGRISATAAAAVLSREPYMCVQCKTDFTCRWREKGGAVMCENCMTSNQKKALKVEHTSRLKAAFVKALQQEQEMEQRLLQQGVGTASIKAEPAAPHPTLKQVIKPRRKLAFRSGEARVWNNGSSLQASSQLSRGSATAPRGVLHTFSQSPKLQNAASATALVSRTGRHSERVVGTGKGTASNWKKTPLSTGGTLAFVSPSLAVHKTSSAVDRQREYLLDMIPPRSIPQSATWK
UniProt Q8VHR5: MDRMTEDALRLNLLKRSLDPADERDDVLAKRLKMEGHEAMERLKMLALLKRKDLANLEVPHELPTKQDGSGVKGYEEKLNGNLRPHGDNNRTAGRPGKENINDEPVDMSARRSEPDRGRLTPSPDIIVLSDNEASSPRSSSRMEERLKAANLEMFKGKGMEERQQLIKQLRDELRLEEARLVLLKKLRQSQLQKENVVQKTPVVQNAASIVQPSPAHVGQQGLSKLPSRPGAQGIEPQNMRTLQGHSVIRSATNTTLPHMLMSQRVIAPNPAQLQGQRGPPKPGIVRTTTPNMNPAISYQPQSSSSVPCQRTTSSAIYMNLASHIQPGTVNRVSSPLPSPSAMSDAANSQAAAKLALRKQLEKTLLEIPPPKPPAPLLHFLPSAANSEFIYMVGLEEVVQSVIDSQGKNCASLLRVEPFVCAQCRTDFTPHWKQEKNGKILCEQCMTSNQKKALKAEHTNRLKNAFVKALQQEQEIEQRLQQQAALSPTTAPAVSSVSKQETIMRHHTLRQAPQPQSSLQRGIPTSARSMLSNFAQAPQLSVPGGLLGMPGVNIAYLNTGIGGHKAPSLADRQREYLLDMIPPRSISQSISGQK
UniProt Q9Z2E1: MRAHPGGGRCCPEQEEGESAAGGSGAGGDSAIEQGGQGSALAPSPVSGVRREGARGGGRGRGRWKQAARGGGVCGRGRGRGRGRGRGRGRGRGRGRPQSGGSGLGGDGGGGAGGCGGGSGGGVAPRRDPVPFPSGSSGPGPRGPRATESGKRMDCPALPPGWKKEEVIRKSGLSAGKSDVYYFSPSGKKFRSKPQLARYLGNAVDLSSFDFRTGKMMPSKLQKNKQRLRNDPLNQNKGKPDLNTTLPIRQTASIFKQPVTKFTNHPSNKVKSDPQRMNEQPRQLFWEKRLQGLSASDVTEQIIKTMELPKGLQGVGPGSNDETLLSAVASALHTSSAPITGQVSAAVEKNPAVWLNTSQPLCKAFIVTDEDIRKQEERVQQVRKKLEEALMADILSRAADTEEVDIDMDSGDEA
UniProt Q8K4B0: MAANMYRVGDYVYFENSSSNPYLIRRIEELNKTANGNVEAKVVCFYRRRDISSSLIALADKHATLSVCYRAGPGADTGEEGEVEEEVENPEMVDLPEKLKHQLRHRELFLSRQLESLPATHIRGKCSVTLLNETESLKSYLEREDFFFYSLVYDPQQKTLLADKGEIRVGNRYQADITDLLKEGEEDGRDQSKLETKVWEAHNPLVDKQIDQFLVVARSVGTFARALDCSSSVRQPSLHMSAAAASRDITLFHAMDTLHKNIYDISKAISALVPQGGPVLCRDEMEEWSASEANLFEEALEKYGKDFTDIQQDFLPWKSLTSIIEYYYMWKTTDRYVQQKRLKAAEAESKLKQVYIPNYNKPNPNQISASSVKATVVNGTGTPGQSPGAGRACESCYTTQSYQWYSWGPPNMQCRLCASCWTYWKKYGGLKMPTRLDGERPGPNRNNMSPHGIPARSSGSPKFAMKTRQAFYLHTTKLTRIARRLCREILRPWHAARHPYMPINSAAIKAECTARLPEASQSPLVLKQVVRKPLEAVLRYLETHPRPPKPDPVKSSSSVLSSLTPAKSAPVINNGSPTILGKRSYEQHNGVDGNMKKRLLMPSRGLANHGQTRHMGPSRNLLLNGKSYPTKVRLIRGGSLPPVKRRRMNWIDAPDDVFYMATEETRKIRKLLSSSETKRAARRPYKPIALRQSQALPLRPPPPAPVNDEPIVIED
UniProt Q9R190: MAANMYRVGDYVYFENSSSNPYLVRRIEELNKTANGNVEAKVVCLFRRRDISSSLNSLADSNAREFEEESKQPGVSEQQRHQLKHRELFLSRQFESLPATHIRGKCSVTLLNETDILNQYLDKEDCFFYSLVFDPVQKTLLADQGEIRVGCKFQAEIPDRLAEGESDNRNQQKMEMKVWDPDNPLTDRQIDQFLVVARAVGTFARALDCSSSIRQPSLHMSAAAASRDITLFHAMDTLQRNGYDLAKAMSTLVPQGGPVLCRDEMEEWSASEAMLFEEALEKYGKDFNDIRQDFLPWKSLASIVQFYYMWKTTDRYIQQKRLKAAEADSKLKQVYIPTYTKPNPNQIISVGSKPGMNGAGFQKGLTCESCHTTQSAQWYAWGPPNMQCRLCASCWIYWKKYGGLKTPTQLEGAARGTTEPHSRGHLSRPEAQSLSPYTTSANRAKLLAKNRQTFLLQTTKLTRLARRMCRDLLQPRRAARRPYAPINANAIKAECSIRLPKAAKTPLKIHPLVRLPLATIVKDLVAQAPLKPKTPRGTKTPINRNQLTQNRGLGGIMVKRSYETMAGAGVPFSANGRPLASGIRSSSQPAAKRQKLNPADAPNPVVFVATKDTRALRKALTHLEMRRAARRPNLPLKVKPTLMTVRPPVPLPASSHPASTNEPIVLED
UniProt Q924K8: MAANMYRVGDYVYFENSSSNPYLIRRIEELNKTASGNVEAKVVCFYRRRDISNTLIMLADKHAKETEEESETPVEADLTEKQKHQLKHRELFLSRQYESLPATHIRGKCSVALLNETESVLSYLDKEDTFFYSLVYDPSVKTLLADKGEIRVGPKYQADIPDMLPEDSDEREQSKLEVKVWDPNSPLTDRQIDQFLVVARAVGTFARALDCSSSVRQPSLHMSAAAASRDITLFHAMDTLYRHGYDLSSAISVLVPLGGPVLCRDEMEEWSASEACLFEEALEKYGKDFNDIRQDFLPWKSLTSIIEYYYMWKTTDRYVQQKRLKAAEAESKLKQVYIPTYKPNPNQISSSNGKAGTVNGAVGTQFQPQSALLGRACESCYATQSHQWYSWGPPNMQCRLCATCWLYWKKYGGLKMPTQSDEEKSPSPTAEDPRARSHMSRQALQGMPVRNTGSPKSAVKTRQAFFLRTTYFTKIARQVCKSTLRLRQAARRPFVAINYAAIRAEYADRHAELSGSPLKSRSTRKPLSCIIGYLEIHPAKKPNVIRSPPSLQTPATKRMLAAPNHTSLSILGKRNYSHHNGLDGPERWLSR

Tests used:
[1] = target: histone deacetylase 2 (HDAC2) (mouse (endogenous in AM-like cells from mouse bone marrow)) (UniProt P70288); assay: affinity purification with mass spectrometry
[2] = target: histone deacetylase 1 (HDAC1) (mouse (endogenous in AM-like cells from mouse bone marrow)) (UniProt O09106); assay: affinity purification with mass spectrometry

Substance	binding [1]	binding [2]
GATAD2A (from UniProt Q8CHY6 1-629)	binds	binds
GATAD2B (from UniProt Q8VHR5 1-594)	–	binds
MBD2 (from UniProt Q9Z2E1 1-414)	binds	binds
MTA1 (from UniProt Q8K4B0 1-715)	binds	binds
MTA2 (from UniProt Q9R190 1-668)	binds	binds
MTA3 (from UniProt Q924K8 1-591)	binds	binds
